According to patent US9173976B2, “Compositions and methods for the treatment of bone voids and open fractures” (POLYPID LTD., priority 2012, dated 2015):
At least one compound was matched to its structure with a doubt left.

Key:
[1] = system: Staphylococcus aureus (ATCC 25923); assay: Antibacterial activity of Doxycycline released from coated bone particles; type: cell-based; conditions: 30 days following hydration, FIG. 4
Method: The antibacterial activity against Staphylococcus aureus (ATCC 25923), of Doxycycline that was released from bone particles coated with the matrix composition of the invention was followed for a period of 30 days following its hydration (FIG. 4). The MIC (Minimal Inhibitory Concentration) for Doxycycline that was released from the matrix composition at different time points was calculated to be ˜1 μg/ml, and MIC 50 (the concentration that inhibits 50% growth) was ˜0.1 μg/ml, values that were similar to the control free Doxycycline.

[2] = system: S. aureus; conditions: Shaarei-Zedek Jerusalem Medical Center Database; cited from earlier work

Structure (SMILES): C[C@H]1c2cccc(O)c2C(=O)C2=C(O)[C@]3(O)C(=O)C(C(N)=O)=C(O)[C@@H](N(C)C)[C@@H]3[C@@H](O)[C@@H]21 [free Doxycycline, Doxycycline]
- antibacterial activity over the test period post hydration [1]: lost gradually
- isolated S. aureus sub species in the clinic resistant to the antibiotic [2]: about 10%
